Measurements reported in PubChem BioAssay AID1224830 (NIAID, 2016).

- Purpose: 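Genes whose knock-down alters the TNF-alpha reporter response to LPS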 (primary screen)
- System: human THP-1 monocytic leukaemia cells, TNF dual-luciferase reporter clone, PMA-differentiated to macrophage-like cells
- Reagent: siRNA pool against human genes, 50 nM
- Duration: LPS for 4 h, given about 3 days after siRNA transfection
- Treatment: bacterial LPS (TLR4 ligand), 10 ng/ml
- Measurement: 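TNF firefly reporter luminescence divided by renilla, normalised to the plate median, then turned into a robust z-score for each replicate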
- Scale: TNF reporter robust z-score: higher = stronger TNF reporter response to LPS
- Rule for the call: 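a well is active when its z-score exceeds 2.8 or falls below -1.5; control wells carry no call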
Shown is a random part of about 18,000 reagents. Of all reagents, about 2,900 (16%) got an active call. 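Calls are made per well; low scores hint the gene aids the LPS response, high scores that it dampens it.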 Repeated entries: four replicate wells of each siRNA pool.

For EPGN (GeneID 255324), what was measured?
TNF reporter robust z-score: -0.76; Call: inactive

What is on record for EPGN (GeneID 255324)?
TNF reporter robust z-score: -0.86; Call: inactive

For EPGN (GeneID 255324), what does the deposit list?
TNF reporter robust z-score: -0.51; Call: inactive

With EPGN (GeneID 255324), how do the results read?
TNF reporter robust z-score: -0.93; Call: inactive

With PCSK6 (GeneID 5046), what does the deposit list?
TNF reporter robust z-score: -0.03; Call: inactive

For PCSK6 (GeneID 5046), what was measured?
TNF reporter robust z-score: -0.41; Call: inactive

With PCSK6 (GeneID 5046), what was measured?
TNF reporter robust z-score: -1.15; Call: inactive

With PCSK6 (GeneID 5046), what was measured?
TNF reporter robust z-score: 0.15; Call: inactive

What did the screen give for HS6ST3 (GeneID 266722)?
TNF reporter robust z-score: -0.44; Call: inactive

With HS6ST3 (GeneID 266722), what was measured?
TNF reporter robust z-score: 0.06; Call: inactive

What did the screen give for HS6ST3 (GeneID 266722)?
TNF reporter robust z-score: 0.36; Call: inactive

How did the screen score HS6ST3 (GeneID 266722)?
TNF reporter robust z-score: 0.21; Call: inactive

How did the screen score PPM1E (GeneID 22843)?
TNF reporter robust z-score: -0.08; Call: inactive

How did the screen score PPM1E (GeneID 22843)?
TNF reporter robust z-score: 0.45; Call: inactive

What did the screen give for PPM1E (GeneID 22843)?
TNF reporter robust z-score: -0.61; Call: inactive

For PPM1E (GeneID 22843), how do the results read?
TNF reporter robust z-score: 2.33; Call: inactive

With UQCR10 (GeneID 29796), what does the deposit list?
TNF reporter robust z-score: 0.52; Call: inactive

For UQCR10 (GeneID 29796), how do the results read?
TNF reporter robust z-score: 0.81; Call: inactive

For UQCR10 (GeneID 29796), what was measured?
TNF reporter robust z-score: 0.5; Call: inactive

Which result is listed for UQCR10 (GeneID 29796)?
TNF reporter robust z-score: -0.27; Call: inactive

Continued.
What is on record for FAM216B (GeneID 144809)?
TNF reporter robust z-score: 0.26; Call: inactive

With FAM216B (GeneID 144809), how do the results read?
TNF reporter robust z-score: 0.86; Call: inactive

What did the screen give for FAM216B (GeneID 144809)?
TNF reporter robust z-score: 1.41; Call: inactive

How did the screen score FAM216B (GeneID 144809)?
TNF reporter robust z-score: 1.54; Call: inactive

For NPFF (GeneID 8620), how do the results read?
TNF reporter robust z-score: -0.89; Call: inactive

With NPFF (GeneID 8620), what was measured?
TNF reporter robust z-score: -0.62; Call: inactive

How did the screen score NPFF (GeneID 8620)?
TNF reporter robust z-score: -0.64; Call: inactive

What did the screen give for NPFF (GeneID 8620)?
TNF reporter robust z-score: -0.37; Call: inactive

What is on record for PCDHB9 (GeneID 56127)?
TNF reporter robust z-score: 2.71; Call: inactive

With PCDHB9 (GeneID 56127), what was measured?
TNF reporter robust z-score: 0.04; Call: inactive

How did the screen score PCDHB9 (GeneID 56127)?
TNF reporter robust z-score: -1.01; Call: inactive

What did the screen give for PCDHB9 (GeneID 56127)?
TNF reporter robust z-score: -0.18; Call: inactive

What is on record for CHMP5 (GeneID 51510)?
TNF reporter robust z-score: -0.32; Call: inactive

What is on record for CHMP5 (GeneID 51510)?
TNF reporter robust z-score: 0.38; Call: inactive

What is on record for CHMP5 (GeneID 51510)?
TNF reporter robust z-score: 0.17; Call: inactive

How did the screen score CHMP5 (GeneID 51510)?
TNF reporter robust z-score: 1.74; Call: inactive

What did the screen give for MFSD12 (GeneID 126321)?
TNF reporter robust z-score: 0.24; Call: inactive

What did the screen give for MFSD12 (GeneID 126321)?
TNF reporter robust z-score: 2.84; Call: active

What did the screen give for MFSD12 (GeneID 126321)?
TNF reporter robust z-score: 1.56; Call: inactive

How did the screen score MFSD12 (GeneID 126321)?
TNF reporter robust z-score: 2.29; Call: inactive

With PEX1 (GeneID 5189), how do the results read?
TNF reporter robust z-score: -0.48; Call: inactive

How did the screen score PEX1 (GeneID 5189)?
TNF reporter robust z-score: 0.1; Call: inactive

With PEX1 (GeneID 5189), what does the deposit list?
TNF reporter robust z-score: -0.26; Call: inactive

With PEX1 (GeneID 5189), how do the results read?
TNF reporter robust z-score: -0.31; Call: inactive

With GALNT18 (GeneID 374378), what does the deposit list?
TNF reporter robust z-score: 0.72; Call: inactive

How did the screen score GALNT18 (GeneID 374378)?
TNF reporter robust z-score: 0.71; Call: inactive

Which result is listed for GALNT18 (GeneID 374378)?
TNF reporter robust z-score: -0.02; Call: inactive
